Test results: PubChem BioAssay AID540256 (National Center for Advancing Translational Sciences (NCATS), 2011)
Out of some 300,000 compounds screened, about 3,700 (1.2%) were called active. Inconclusive results, whose numbers are uncertain, are shown with a selection of clear calls. Calls follow the shape of the full dose curve; tested in HEK293 cells. Potencies of inconclusive entries are doubtful fits and often do not repeat.

Assay: qHTS for Inhibitors of binding or entry into cells for Lassa Virus; also: nearly all actives have a fitted effect of over 50% in size
Conditions: Lassa virus pseudotype entry inhibition, cell reporter; activity change, negative = inhibition: at 37.9 µM (top of the series) unless noted
% is scaled to controls: 0 for no effect and ±100 for the full control effect; potency is read from the fitted curve at half-maximal effect.

Row | SMILES | Potency | activity change, negative = inhibition
1 | O=C(CCCc1ccccc1)c1ccc2c(c1)OCCO2 | inconclusive: 0.461 µM [inhibitor, full curve, poor fit] | 
2 | Cc1cc(C)nc(NS(=O)(=O)c2ccc(NC(=S)NC(=O)C(C)(C)C)cc2)n1 |  | inactive: -8.96%
3 | CC(C)CCNC(=S)Nc1ccc([N+](=O)[O-])cc1 | inconclusive: 12.6 µM [inhibitor, partial curve, poor fit] | 
4 | CCc1ccc(Nc2ncc3c(n2)CC(C)(C)CC3=O)cc1 | inconclusive: 11.2 µM [inhibitor, partial curve, poor fit] | 
5 | CCOC(=O)c1oc2ccc(CNC3CCCCC3)c(Cl)c2c1C | inconclusive: 25.9 µM [inhibitor, single point] | 
6 | COc1ccccc1C(CC(=O)c1ccccc1)CC(=O)c1ccccc1 | inconclusive: 5.62 µM [inhibitor, full curve, poor fit] | 
7 | COCCCN1C(=O)c2[nH]nc(-c3cc(C)cc(C)c3O)c2C1c1ccc(O)c(OC)c1 (stereo not given) | inconclusive: 6.51 µM [inhibitor, full curve] | 
8 | CN(C)CC(CCC(CN(C)C)C(O)(c1ccccc1)c1ccccc1)C(O)(c1ccccc1)c1ccccc1 (stereo not given) | inconclusive: 7.94 µM [inhibitor, partial curve] | 
9 | COc1ccc(C(=O)C(Cc2ccccc2)N(C)C)cc1 (stereo not given) |  | inactive: 13.7%
10 | Cc1cc(C)c2nc(/N=C(\N)NC(=O)Nc3ccccc3)nc(C)c2c1 | inconclusive: 23.1 µM [inhibitor, partial curve] | 
11 | CCCCN(CC)CCCNC(=S)Nc1ccc2nc(N3CCN(C)CC3)cc(C)c2c1 | inconclusive: 35.5 µM [inhibitor, single point] | 
12 | COCCn1ccc2c(OCC(=O)NCc3ccc(F)cc3)cccc2c1=O | inconclusive: 5.62 µM [inhibitor, full curve] | 
13 | O=C(NCCCn1ccnc1)c1nn2c(C(F)(F)F)cc(-c3ccccc3)nc2c1Cl |  | inactive: 2.77%
14 | Cc1ccc2nsnc2c1-n1c(C)nc2ccccc2c1=O |  | inactive: 10.8%
15 | O=[N+]([O-])c1ccc2nc(SCc3cn4cc(Cl)ccc4n3)[nH]c2c1 | inconclusive: 0.708 µM [inhibitor, single point] | 
16 | CCCCOc1ccc(CN2CCC(O)CC2)cc1 |  | inactive: -0.217%
17 | COc1ccc(C(=O)NCCSc2c(C)[nH]c3ccccc23)cc1 |  | inactive: 16.2% [at 46.1 µM]
18 | CCOc1ccc(NS(=O)(=O)c2cc(NC(=O)CCS(=O)(=O)c3ccc(C)cc3)ccc2OC)cc1 |  | inactive: -26.7%
19 | O=C(COC(=O)c1cccc(S(=O)(=O)N2CCCCCC2)c1)NCc1ccc(Cl)cc1 | inconclusive: 15.8 µM [inhibitor, partial curve] | 
20 | Cc1ccc(NC(=O)c2cccc(OCc3c(C)noc3C)c2)c(C)c1 | inconclusive: 20.6 µM [inhibitor, single point] | 
21 | CCOc1ccc(Cn2c(CNS(=O)(=O)c3ccc([N+](=O)[O-])cc3)nc3cccnc32)cc1 |  | inactive: -11.1% [at 46.1 µM]
22 | CC(C)C(=O)Nc1oc(-c2ccccc2)cc1C#N | inconclusive: 15.8 µM [inhibitor, partial curve, poor fit] | 
23 | Cc1[nH]c2ccccc2c1/C=C/c1nc2ccccc2c(=O)n1CCO | active: 11.2 µM | 
24 | COc1ccc2oc(C(=O)OCC(=O)N3CCCC(C)C3)c(C)c2c1 (stereo not given) | inconclusive: 0.178 µM [inhibitor, full curve, poor fit] | 

Row | SMILES | Potency | activity change, negative = inhibition
25 | C=CCn1c(=O)c(C(=O)NCCNCC)c(O)c2ccccc21 |  | inactive: 1.27%
26 | O=C(NCC1CCCO1)C(c1ccc(F)cc1)N(CCCN1CCOCC1)C(=O)c1ccc(-c2ccccc2)[nH]1 (stereo not given) |  | inactive: -22.4%
27 | O=c1c2cc3c(nc2ncn1Cc1ccccc1F)CCCC3 | inconclusive: 4.47 µM [inhibitor, full curve, poor fit] | 
28 | Cc1c(NS(C)(=O)=O)cccc1-c1nc2ccccc2s1 | inconclusive: 10 µM [inhibitor, single point] | 
29 | COc1ccc(O[C@H]2C=C[C@@H](c3ccccc3)O[C@@H]2COC(=O)CC/C(C)=N/OC[C@@H](O)COCc2ccco2)cc1 | inconclusive: 29.1 µM [inhibitor, single point] | 
30 | O=C(CCl)Nc1ccc(Oc2cnc3ccccc3n2)cc1 | active: 20.6 µM | 
31 | Cc1cc(C)c(NC(=O)C2CCCCN2C)c(C)c1 (stereo not given) |  | inactive: 12.5%
32 | Cc1ccc(C)c(CN2C(=O)c3ccccc3S(=O)c3ccc(C(=O)NCCc4ccc(Cl)cc4)cc32)c1 (stereo not given) | inconclusive: 25.1 µM [inhibitor, single point] | 
33 | O=[N+]([O-])c1cccnc1Oc1cccnc1 | inconclusive: 12.6 µM [activator, single point] | 
34 | CN(C)c1ccc(CNC(=O)C2CCN(S(=O)(=O)c3cn(C)cn3)CC2)cc1 |  | inactive: 5.86% [at 46.1 µM]
35 | O=C(CCc1ccccc1)Nc1ccc2c(c1)OCO2 | inconclusive: 35.5 µM [activator, single point] | 
36 | Cc1cccc(NC(=O)c2ccc(NCC3CCCO3)c([N+](=O)[O-])c2)n1 (stereo not given) | inconclusive: 2.51 µM [activator, partial curve, poor fit] | 
37 | Cc1ccc(N2C(=N)SCC2=O)cc1Cl |  | inactive: -7.64%
38 | CCOC(=O)c1nn(-c2ccc3c(c2)CCN3C(C)=O)cc1O | inconclusive: 5.17 µM [inhibitor, full curve, poor fit] | 
39 | COc1ccc(CC(C)NCCc2ccc(OC)c(OC)c2)cc1 (stereo not given) | inconclusive: 17.8 µM [inhibitor, single point] | 
40 | COc1ccc(C(=O)N2CCC(c3c[nH]c4ccccc34)(c3c[nH]c4ccccc34)CC2)cc1 | inconclusive: 17.8 µM [inhibitor, partial curve, poor fit] | 
41 | COc1ccc(CNC(=O)C(=O)c2cn(CC(=O)N3CCCC3)c3ccccc23)cc1 | inconclusive: 35.5 µM [activator, partial curve, poor fit] | 
42 | CC(Oc1ccc(Cl)cc1Cl)c1nc(-c2ccc(NC(=O)c3ccncc3)cc2)no1 (stereo not given) | inconclusive: 29.1 µM [inhibitor, single point] | 
43 | CCn1c(SCC(=O)Nc2cc(F)ccc2C)nnc1-c1ccccc1O |  | inactive: 2.1%
44 | Cc1cc(F)ccc1N1CCC(N2CCN(CCC(C)C)C(CCO)C2)CC1 (stereo not given) | inconclusive: 22.4 µM [inhibitor, partial curve, poor fit] | 
45 | CC(C)c1ccc(OCC(=O)NNC(=S)NC(=O)C2CC2)cc1 | inconclusive: 15.8 µM [inhibitor, single point] | 
46 | CCOc1ccc(NC(=O)CN(C)C(=O)C(C)Oc2ccc(Cl)cc2)cc1OCC (stereo not given) | inconclusive: 1.12 µM [inhibitor, partial curve, poor fit] | 
47 | O=C(O)c1ccc2c(c1)C(=O)N(Cc1ccc3c(c1)OCO3)C2=O |  | inactive: 1.68%
48 | COc1ccccc1-c1cc(C(F)(F)F)nc(S(=O)(=O)CCCC(=O)Nc2ccc(F)c(Cl)c2)n1 |  | inactive: 3.73% [at 46.1 µM]

Individual results from the results shown.
Potency, COc1ccc(O[C@H]2C=C[C@@H](c3ccccc3)O[C@@H]2COC(=O)CC/C(C)=N/OC[C@@H](O)COCc2ccco2)cc1 reads inconclusive: 29.1 µM [inhibitor, single point]
Potency, COc1ccc(CNC(=O)C(=O)c2cn(CC(=O)N3CCCC3)c3ccccc23)cc1 reads inconclusive: 35.5 µM [activator, partial curve, poor fit]
activity change, negative = inhibition, O=C(NCCCn1ccnc1)c1nn2c(C(F)(F)F)cc(-c3ccccc3)nc2c1Cl reads inactive: 2.77%
Potency, CC(C)c1ccc(OCC(=O)NNC(=S)NC(=O)C2CC2)cc1 reads inconclusive: 15.8 µM [inhibitor, single point]
activity change, negative = inhibition, COc1ccc(C(=O)NCCSc2c(C)[nH]c3ccccc23)cc1 reads inactive: 16.2% [at 46.1 µM]

Continued.

Row | SMILES | Potency | activity change, negative = inhibition
49 | COc1cccc2[nH]c3c(N4CCC(C)CC4)ncnc3c12 |  | inactive: -0.641%
50 | CCc1nnc(NC(=O)c2cc(OC)c(OC)cc2[N+](=O)[O-])s1 | inconclusive: 1.26 µM [activator, single point] | 
51 | O=C1NC(=S)NC1=Cc1ccccc1O |  | inactive: -10.1% [at 46.1 µM]
52 | CCOc1ccc(-n2nnc3c(=O)n(CC(=O)N4CCCc5ccccc54)cnc32)cc1 |  | inactive: 15.6%
53 | O=C(CNC(=O)C1CCCCC1)Nc1ccccc1 | inconclusive: 29.1 µM [activator, partial curve, poor fit] | 
54 | COc1ccc(NC(=O)NCCCCc2ccccc2)cc1OC | inconclusive: 0.562 µM [activator, full curve, poor fit] | 
55 | Fc1ccccc1CNc1cc(Cl)cc(Cl)c1 | inconclusive: 13 µM [inhibitor, partial curve, poor fit] | 
56 | Cn1nnnc1Sc1c(Cl)cccc1[N+](=O)[O-] |  | inactive: 2.8%
57 | O=C(NC1CCN(Cc2ccc3ccccc3c2)CC1)c1ccccc1 |  | inactive: -24.8% [at 46.1 µM]
58 | O=C(CN1C(=O)C2CC=CCC2C1=O)N1CCN(c2ccc([N+](=O)[O-])cc2)CC1 (stereo not given) |  | inactive: -13.1%
59 | CCN1CCN(CCNC(=O)c2ccc(/C=C3/Sc4ccccc4N(Cc4cccc(Cl)c4)C3=O)cc2)CC1 | inconclusive: 2.51 µM [inhibitor, full curve, poor fit] | 
60 | Cc1ccc(NC(=O)CN2C=NS(=O)(=O)c3ccccc32)c(C)c1 |  | inactive: 27.8% [at 46.1 µM]
61 | O=C1CCc2cc(NS(=O)(=O)c3ccc([N+](=O)[O-])cc3)cc3c2N1CC3 | inconclusive: 0.0355 µM [inhibitor, full curve, poor fit] | 
62 | Cc1ccc(SCC(=O)OCC(=O)N(C)CC(=O)Nc2ccc(F)cc2)cc1C |  | inactive: -0.705%
63 | COc1cccc(CNC(=O)NCc2noc3ccc(C)cc23)c1 |  | inactive: 12.9% [at 46.1 µM]
64 | COC(=O)C(NC(C)=O)(Nc1nc2c(C)cc(C)cc2s1)C(F)(F)F (stereo not given) | inconclusive: 35.5 µM [inhibitor, single point] | 
65 | CCOc1ccc(N(CC)S(=O)(=O)N2CCCC(C(=O)NCc3ccc(SC)cc3)C2)cc1 (stereo not given) | inconclusive: 35.5 µM [inhibitor, partial curve, poor fit] | 
66 | Cc1cccc(-c2nc(C#N)c(NCC3CCCO3)o2)c1 (stereo not given) | inconclusive: 2 µM [activator, single point] | 
67 | CC(C)(C)c1nn(-c2ccccc2)c2[nH]c(=O)c(CNCc3ccc4c(c3)OCO4)cc12 | inconclusive: 18.3 µM [inhibitor, single point] | 
68 | C=CCN(c1ccccc1)S(=O)(=O)c1cccc(C(=O)N2CCCC2)c1 |  | inactive: -8.52% [at 46.1 µM]
69 | Cc1c(C(=O)Nc2ccccc2)csc1-c1ccccc1 | inconclusive: 29.1 µM [inhibitor, single point] | 
70 | O=C(c1cccnc1)N(Cc1ccccc1)c1ccccc1 | inconclusive: 1.64 µM [inhibitor, single point] | 
